The data set has as its system chronic CS-exposed AKR/J mice. Description: Morphometric analysis of airspace dimension and airway attachments in chronic CS-induced emphysema model. The data set is classed as in vivo. The conditions noted are these: room air-exposed mice, 2 months treatment, compared with untreated controls. Here is the method: Six- to eight-week-old AKR/J male mice were divided into 3 groups. […] CS exposure was carried out (2 hours per day, 5 days per week) by burning 2R4F reference cigarettes (University of Kentucky, […], Ky., USA) using a smoking machine (Model TE-10; Teague Enterprises) for 6 to 7 weeks. The average concentration of total suspended particulates and carbon monoxide was 90 mg/m and 350 ppm, respectively, which was monitored on a routine basis.
[…] Panselective TGF-β-neutralizing antibody (R&D Systems) was administered by intraperitoneal injection according to published protocol (70). Isotype-matched control antibody (R&D Systems) was administered to control mice as described above.
Three to five mice of each genotype were studied at the noted ages. For histologic and morphometric analyses, mouse lungs were inflated at a pressure of 25 cm H2O and fixed with 4% PFA in low molecular weight agarose. […]
Mean linear intercept measurements were performed on H&E-stained sections taken at intervals throughout both lungs. […] Mean chord lengths and mean linear intercepts were assessed by automated morphometry with a macro-operation performed by Metamorph Imaging Software (Universal Imaging, Molecular Devices). Mean airway thickness was measured directly using microscope-captured images at ×40 magnification. […]

Each structure is given as a SMILES string.

As for `CCCCc1nc(Cl)c(CO)n1Cc1ccc(-c2ccccc2-c2nn[nH]n2)cc1` [losartan], the “airspace caliber or histology in RA-exposed mice” value is given as “no change in airspace caliber or histology”. In addition, for the setting “listed as Losartan”, the “airspace caliber or histology in RA-exposed mice” value is given as “does not affect airspace dimension”.

The record behind these values is patent US20140170158A1, “COMPOSITIONS AND METHODS FOR TREATING OR PREVENTING LUNG DISEASES” (THE JOHNS HOPKINS UNIVERSITY, priority 2012, published 2014).
